Experimental data reported in the supplement of paper PMC6411743.
± gives the standard deviation of the averaged measurements. Only a part is listed here, and it is no random draw.

Key:
Test in all cases: NP40-soluble protein abundance relative to vehicle (solubility fold change) (ratio); higher = more soluble protein in presence of ATP
RAB9A = target: T1, RAB9A (UniProt P51151)
T1 sequence (whole entry): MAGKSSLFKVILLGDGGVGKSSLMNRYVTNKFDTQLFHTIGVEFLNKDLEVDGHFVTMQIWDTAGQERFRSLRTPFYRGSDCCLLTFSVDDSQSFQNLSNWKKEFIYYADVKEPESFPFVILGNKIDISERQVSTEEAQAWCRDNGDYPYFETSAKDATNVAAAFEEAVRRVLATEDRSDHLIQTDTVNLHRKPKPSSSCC
Summary of the method: (§1)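 Across three independent experiments, values are fold changes against the detergent-processed vehicle for each replicate, based on vsn-normalised intensities. The samples were Jurkat crude lysate treated with eight concentrations (0.1 to 10 mM) for 10 min at room temperature and then 3 min at 37 °C. Lysate was solubilised with 0.8% NP40 and benzonase, ultracentrifuged, and the supernatant analysed by TMT-labelled LC-MS/MS.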

TMED10 = target: T2, TMED10 (UniProt P49755)
T2 sequence (whole entry): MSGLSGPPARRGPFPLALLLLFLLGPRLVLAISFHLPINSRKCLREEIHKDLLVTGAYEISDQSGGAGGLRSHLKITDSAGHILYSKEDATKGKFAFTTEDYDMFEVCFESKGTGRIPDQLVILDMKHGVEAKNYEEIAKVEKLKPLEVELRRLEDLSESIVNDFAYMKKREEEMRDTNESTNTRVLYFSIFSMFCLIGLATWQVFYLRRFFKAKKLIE
Summary of the method: as §1

UQCRFS1 = target: T3, UQCRFS1 (UniProt P47985)
T3 sequence (whole entry): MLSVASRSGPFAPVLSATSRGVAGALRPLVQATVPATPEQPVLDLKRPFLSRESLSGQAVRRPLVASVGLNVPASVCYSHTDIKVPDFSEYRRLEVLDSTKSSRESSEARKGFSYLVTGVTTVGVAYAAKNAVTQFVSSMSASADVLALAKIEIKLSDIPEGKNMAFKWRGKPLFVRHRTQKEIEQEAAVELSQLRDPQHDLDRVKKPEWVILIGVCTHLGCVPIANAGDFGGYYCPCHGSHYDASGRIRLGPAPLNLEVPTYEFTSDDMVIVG
Summary of the method: as §1

[1] = target: T4, UniProt P42224 and related entries
T4 sequence (whole entry): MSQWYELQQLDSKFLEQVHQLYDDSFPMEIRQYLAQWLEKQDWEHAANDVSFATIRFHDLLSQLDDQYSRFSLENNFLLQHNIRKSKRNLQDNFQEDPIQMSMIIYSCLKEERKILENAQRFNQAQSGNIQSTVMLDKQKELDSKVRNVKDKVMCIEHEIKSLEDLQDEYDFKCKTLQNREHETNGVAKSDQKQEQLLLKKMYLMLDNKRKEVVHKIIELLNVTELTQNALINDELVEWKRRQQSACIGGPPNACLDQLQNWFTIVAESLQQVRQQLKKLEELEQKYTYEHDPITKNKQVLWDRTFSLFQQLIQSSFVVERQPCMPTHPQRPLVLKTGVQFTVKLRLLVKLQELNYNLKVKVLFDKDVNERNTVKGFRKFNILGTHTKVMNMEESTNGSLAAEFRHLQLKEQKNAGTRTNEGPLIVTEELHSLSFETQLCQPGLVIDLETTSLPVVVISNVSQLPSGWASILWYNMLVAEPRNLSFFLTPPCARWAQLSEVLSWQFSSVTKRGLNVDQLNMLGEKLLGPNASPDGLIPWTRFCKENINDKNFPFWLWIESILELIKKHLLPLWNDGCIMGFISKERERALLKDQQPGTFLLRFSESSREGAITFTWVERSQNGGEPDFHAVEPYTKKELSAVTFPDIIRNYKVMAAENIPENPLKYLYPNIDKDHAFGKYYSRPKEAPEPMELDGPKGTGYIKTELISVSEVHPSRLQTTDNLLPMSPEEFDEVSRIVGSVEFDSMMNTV
Summary of the method: as §1

[2] = target: T5, UniProt P48739 and related entries
T5 sequence (whole entry): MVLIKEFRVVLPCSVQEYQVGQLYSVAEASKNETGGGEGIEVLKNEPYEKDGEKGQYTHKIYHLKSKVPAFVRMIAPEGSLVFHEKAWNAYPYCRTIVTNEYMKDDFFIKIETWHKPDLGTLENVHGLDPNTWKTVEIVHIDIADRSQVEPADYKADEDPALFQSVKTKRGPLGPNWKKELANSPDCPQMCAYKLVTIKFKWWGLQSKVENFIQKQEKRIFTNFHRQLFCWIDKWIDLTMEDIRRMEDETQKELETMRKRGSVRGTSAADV
Summary of the method: as §1

[3] = target: T6, UniProt P49116 and related entries
T6 sequence (whole entry): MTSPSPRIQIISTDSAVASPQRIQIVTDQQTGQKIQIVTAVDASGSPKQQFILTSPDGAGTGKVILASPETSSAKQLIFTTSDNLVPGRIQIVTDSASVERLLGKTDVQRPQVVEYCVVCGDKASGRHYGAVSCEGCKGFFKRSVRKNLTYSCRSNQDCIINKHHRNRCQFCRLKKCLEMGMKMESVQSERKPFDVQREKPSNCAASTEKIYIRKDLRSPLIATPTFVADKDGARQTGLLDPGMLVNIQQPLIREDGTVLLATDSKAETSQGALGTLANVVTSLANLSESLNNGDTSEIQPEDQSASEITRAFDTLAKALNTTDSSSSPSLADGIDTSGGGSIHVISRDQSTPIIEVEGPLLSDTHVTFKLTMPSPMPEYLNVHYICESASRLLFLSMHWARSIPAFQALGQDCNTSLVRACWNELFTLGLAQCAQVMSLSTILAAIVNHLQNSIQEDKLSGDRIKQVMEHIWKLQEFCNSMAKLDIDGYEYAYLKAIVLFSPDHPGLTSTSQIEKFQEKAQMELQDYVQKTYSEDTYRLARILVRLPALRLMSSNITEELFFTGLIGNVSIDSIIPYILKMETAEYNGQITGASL
Summary of the method: as §1

[4] = target: T7, UniProt P51178 and related entries
T7 sequence (whole entry): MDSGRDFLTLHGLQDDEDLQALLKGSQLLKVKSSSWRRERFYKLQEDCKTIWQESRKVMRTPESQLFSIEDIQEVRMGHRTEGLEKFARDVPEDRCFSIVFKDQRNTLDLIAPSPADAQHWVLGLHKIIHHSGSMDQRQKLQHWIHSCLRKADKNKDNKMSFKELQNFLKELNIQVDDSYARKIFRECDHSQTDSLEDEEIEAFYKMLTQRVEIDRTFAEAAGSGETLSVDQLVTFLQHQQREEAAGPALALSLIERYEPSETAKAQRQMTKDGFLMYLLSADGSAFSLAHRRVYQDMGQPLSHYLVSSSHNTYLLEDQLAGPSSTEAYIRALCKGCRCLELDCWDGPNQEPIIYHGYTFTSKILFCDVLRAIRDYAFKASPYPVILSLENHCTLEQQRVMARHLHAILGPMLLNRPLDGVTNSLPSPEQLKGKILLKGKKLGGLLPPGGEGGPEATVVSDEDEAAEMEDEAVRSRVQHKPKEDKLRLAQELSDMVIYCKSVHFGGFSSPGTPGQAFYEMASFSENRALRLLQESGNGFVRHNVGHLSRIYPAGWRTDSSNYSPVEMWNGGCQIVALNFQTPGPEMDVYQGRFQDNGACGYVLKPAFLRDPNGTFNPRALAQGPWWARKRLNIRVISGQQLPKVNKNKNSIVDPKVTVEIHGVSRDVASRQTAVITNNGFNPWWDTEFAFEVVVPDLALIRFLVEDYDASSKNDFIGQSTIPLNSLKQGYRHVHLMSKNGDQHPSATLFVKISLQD
Summary of the method: as §1

WAS = target: T8, WAS (UniProt P42768)
T8 sequence (whole entry): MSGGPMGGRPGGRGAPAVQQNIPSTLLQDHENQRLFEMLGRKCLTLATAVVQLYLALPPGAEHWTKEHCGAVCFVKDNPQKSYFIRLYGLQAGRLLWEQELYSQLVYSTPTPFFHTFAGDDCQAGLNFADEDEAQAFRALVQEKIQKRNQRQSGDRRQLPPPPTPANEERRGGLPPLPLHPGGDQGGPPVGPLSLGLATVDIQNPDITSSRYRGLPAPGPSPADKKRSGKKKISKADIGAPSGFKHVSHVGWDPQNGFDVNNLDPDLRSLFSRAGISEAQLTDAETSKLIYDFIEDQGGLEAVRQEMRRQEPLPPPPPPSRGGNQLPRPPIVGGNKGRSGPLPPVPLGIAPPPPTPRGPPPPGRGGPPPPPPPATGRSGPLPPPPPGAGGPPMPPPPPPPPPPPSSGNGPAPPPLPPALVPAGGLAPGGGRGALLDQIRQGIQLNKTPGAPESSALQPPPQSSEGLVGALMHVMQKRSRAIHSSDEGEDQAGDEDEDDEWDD
Summary of the method: as §1

`Nc1ncnc2c1ncn2[C@@H]1O[C@H](COP(=O)(O)OP(=O)(O)OP(=O)(O)O)[C@@H](O)[C@H]1O` [adenosine triphosphate] showed an NP40-soluble protein abundance (RAB9A; concentration: 6mM) of 1.02 ± 0.092, an NP40-soluble protein abundance (RAB9A; concentration: 8mM) of 0.982 ± 0.051 and an NP40-soluble protein abundance (RAB9A; concentration: 10mM) of 0.9904 ± 0.0036. The NP40-soluble protein abundance (TMED10; concentration: 1mM) was 1.07 ± 0.063, the NP40-soluble protein abundance (TMED10; concentration: 2mM) was 1.02 ± 0.083 and the NP40-soluble protein abundance (TMED10; concentration: 4mM) was 0.96 ± 0.084. For the same compound, the NP40-soluble protein abundance (TMED10; concentration: 6mM) was 1 ± 0.1, the NP40-soluble protein abundance (TMED10; concentration: 8mM) was 0.993 ± 0.13 and the NP40-soluble protein abundance (TMED10; concentration: 10mM) was 0.971 ± 0.076. For the same compound, the NP40-soluble protein abundance (UQCRFS1; concentration: 1mM) was 1.02 ± 0.071, the NP40-soluble protein abundance (UQCRFS1; concentration: 2mM) was 1.02 ± 0.054 and the NP40-soluble protein abundance (UQCRFS1; concentration: 4mM) was 0.968 ± 0.044. It also gave an NP40-soluble protein abundance (UQCRFS1; concentration: 6mM) of 0.975 ± 0.11, an NP40-soluble protein abundance (UQCRFS1; concentration: 8mM) of 0.974 ± 0.054 and an NP40-soluble protein abundance (UQCRFS1; concentration: 10mM) of 0.971 ± 0.057. For the same compound, the NP40-soluble protein abundance ([1]; concentration: 1mM) was 1 ± 0.041, the NP40-soluble protein abundance ([1]; concentration: 2mM) was 1 ± 0.025 and the NP40-soluble protein abundance ([1]; concentration: 4mM) was 0.979 ± 0.03. It also gave an NP40-soluble protein abundance ([1]; concentration: 6mM) of 0.978 ± 0.069, an NP40-soluble protein abundance ([1]; concentration: 8mM) of 0.982 ± 0.044 and an NP40-soluble protein abundance ([1]; concentration: 10mM) of 0.96 ± 0.046. The NP40-soluble protein abundance ([2]; concentration: 1mM) was 1.02 ± 0.058, the NP40-soluble protein abundance ([2]; concentration: 2mM) was 0.992 ± 0.068 and the NP40-soluble protein abundance ([2]; concentration: 4mM) was 0.97 ± 0.069. The NP40-soluble protein abundance ([2]; concentration: 6mM) was 0.964 ± 0.11, the NP40-soluble protein abundance ([2]; concentration: 8mM) was 0.991 ± 0.068 and the NP40-soluble protein abundance ([2]; concentration: 10mM) was 0.97 ± 0.056. For the same compound, the NP40-soluble protein abundance ([3]; concentration: 1mM) was 0.9959 ± 0.005, the NP40-soluble protein abundance ([3]; concentration: 2mM) was 1.1 ± 0.1 and the NP40-soluble protein abundance ([3]; concentration: 4mM) was 1 ± 0.042. The NP40-soluble protein abundance ([3]; concentration: 6mM) was 0.986 ± 0.018, the NP40-soluble protein abundance ([3]; concentration: 8mM) was 0.981 ± 0.024 and the NP40-soluble protein abundance ([3]; concentration: 10mM) was 0.978 ± 0.018. For the same compound, the NP40-soluble protein abundance ([4]; concentration: 1mM) was 1.01 ± 0.084, the NP40-soluble protein abundance ([4]; concentration: 2mM) was 0.983 ± 0.044 and the NP40-soluble protein abundance ([4]; concentration: 4mM) was 1.08 ± 0.063. It also gave an NP40-soluble protein abundance ([4]; concentration: 6mM) of 1 ± 0.029, an NP40-soluble protein abundance ([4]; concentration: 8mM) of 0.983 ± 0.054 and an NP40-soluble protein abundance ([4]; concentration: 10mM) of 0.964 ± 0.015. For the same compound, the NP40-soluble protein abundance (WAS; concentration: 1mM) was 0.925 ± 0.099, the NP40-soluble protein abundance (WAS; concentration: 2mM) was 0.916 ± 0.048 and the NP40-soluble protein abundance (WAS; concentration: 4mM) was 0.911 ± 0.059. The NP40-soluble protein abundance (WAS; concentration: 6mM) was 0.888 ± 0.048, the NP40-soluble protein abundance (WAS; concentration: 8mM) was 0.876 ± 0.04 and the NP40-soluble protein abundance (WAS; concentration: 10mM) was 0.847 ± 0.055.
